The values are deposited in ChEMBL (CHEMBL3988442, “University of Dundee, Small-Polar-MMV Screening Library” (2021)).

Each number is a percent effect as filed.
How 0% and 100% were set is not recorded. Most values in the screen are low, and negative values occur.
The compounds are a random part of those screened.
A dash means the value is not listed here; it may have been measured.

Mtb growth Cornell: 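Whole-cell assay for inhibitors of Mycobacterium tuberculosis growth, labelled Cornell in the record; the read-out is not stated. The concentration is filed as 10 mM, unlikely as a test dose, so the dose is not known. Higher means stronger inhibition (inferred from two other growth screens of the library). About 53,000 compounds were tested under these conditions; 1.7% (about 900) showed 50% or more at least once.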
Mtb heat-shock: 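Assay on Mycobacterium tuberculosis, filed only as a heat shock assay from Cornell; the read-out is not stated. The concentration is filed as 10 mM, unlikely as a test dose, so the dose is not known. Direction is inferred from retests: higher values go with stronger inhibition. Of about 69,000 compounds tested this way, about 930 (1.4%) reached 50% or more in at least one test.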

| # | structure | Mtb growth Cornell | Mtb heat-shock |
|---|---|---|---|
| 1 | `CC(=O)NC(Cc1c[nH]c2cc(F)ccc12)C(=O)Nc1nonc1C` (centres undefined) | -25.54% | -10.78% |
| 2 | `CC(C)N[C@@H]1CO[C@H](CNC(=O)Nc2ccccc2)[C@H]1O` | 1.6% | -2.611% |
| 3 | `CC(=O)Nc1cc(C2CC2)nn1-c1nc(C)c(C)c(=O)[nH]1` | -29.54% | 27.84% |
| 4 | `CN(Cc1cc(C(C)(C)C)n[nH]1)Cc1c[nH]nc1-c1ccc(F)cc1` | 32.68% | 10.87% |
| 5 | `CC(C)CNC(=O)c1cc(C2CC2)nc2c1c(C1CCCN1)nn2C` (centres undefined) | - | -24.27% |
| 6 | `CC(=O)N1CCCC1c1nc(C)c2c(n1)N(Cc1ccccn1)CCC2` (centres undefined) | -10.82% | 2.361% |
| 7 | `COc1cccc(CN2CCC3(CC2)CCN(c2ncccn2)C3)c1.O=C(O)C(F)(F)F.O=C(O)C(F)(F)F` | 5.451% | -34.09% |
| 8 | `CCOC(=O)CCNC(=O)N1CCN(c2nc3ccccc3n2C)CC1` | 16.58% | 12.11% |
| 9 | `Cn1cc(CN2CCOC(c3nccnc3-c3cccc(F)c3)C2)cn1` (centres undefined) | -4.968% | -6.067% |
| 10 | `COc1ccc(CN2CCn3c(CO)nnc3C2)cc1CN1CCCC1.O=C(O)CC(O)(CC(=O)O)C(=O)O` | -5.57% | -3.496% |
| 11 | `Cn1c(-c2ccccc2Cl)nc2cc(C(=O)NCC3(C)COC3)cnc21` | - | 17.53% |
| 12 | `COCCN1C(=O)CC[C@]12CC[C@@H](NCc1cccc(C)n1)CC2.O=C(O)C(F)(F)F` | -5.525% | -37.57% |
| 13 | `COc1ccc2[nH]nc(CN3CCC(C(=O)N4CCCCC4)CC3)c2c1` | - | -6.144% |
| 14 | `Cc1nccn1-c1cccc(C2CCCN2)n1.Cl` (centres undefined) | 14.92% | -11.58% |
| 15 | `O=C(Nc1ccc(F)cc1-c1nc(C2CC2)no1)N1CC[C@@H](O)C1` | 10.66% | -0.05663% |
| 16 | `O=C(NCCNc1ncccn1)c1ccc(Cl)s1` | -32.26% | 5.458% |
| 17 | `O=C(C1CCCO1)N1CCC(n2cc(-c3ccsc3)nn2)CC1` (centres undefined) | 1.995% | 9.466% |
| 18 | `O=C(CCc1nc(Cl)n[nH]1)N1CCC2(CCCNC2=O)C1` (centres undefined) | 20.54% | -3.524% |
| 19 | `CCN(CC)C(=O)Cn1cc(C(=O)NCCc2nc(C)c(C)s2)nn1` | 19.36% | 10.78% |
| 20 | `O=C(O)C(F)(F)F.c1cnc(N2CCC3(COCc4cnc(-c5cccnc5)nc43)C2)nc1` (centres undefined) | -17.47% | -3.078% |
| 21 | `CN(C)C(=O)C1CCC2(CCN(Cc3cnn(C)c3)CC2)C1.O=C(O)C(F)(F)F` (centres undefined) | -8.406% | 2.115% |
| 22 | `Cn1cnc2c1CCN(CCOc1ccc(C#N)cc1)C2` | - | -13.56% |
| 23 | `CC1CCN(CCNCc2cc(-c3ccccc3)cn3nnnc23)CC1` | -16.78% | -17.11% |
| 24 | `CCN(Cc1ccoc1)Cc1nc(COC)no1` | 1.943% | 6.77% |
| 25 | `[H][C@@]12CCCN1C[C@@H](CCSC)N(Cc1cnn(CCC)c1C)C2` | -1.801% | -3.976% |
| 26 | `O=C(NCCNC(=O)C1Cc2cc(F)ccc2O1)C1CCCCC1` (centres undefined) | 7.788% | -14.69% |
| 27 | `COCC(=O)N1CCC2(CC1)CC(=O)N(Cc1ccc(Cl)cc1)C2` | -17.76% | 1.704% |
| 28 | `O=C(CN1CCC2(CCCN(CCO)C2=O)C1)NCCc1ccccc1` (centres undefined) | -19.06% | -6.16% |
| 29 | `Cc1csc(NC(=O)C2(C)CN(C)CCO2)n1` (centres undefined) | -0.1663% | -2.412% |
| 30 | `Cc1cc(C(=O)NC2CCCCNC2=O)c(=O)[nH]c1C` (centres undefined) | 33.58% | -17.5% |
| 31 | `c1cncc(-c2noc(CNC3CCc4ncnn4C3)n2)c1` (centres undefined) | - | -3.736% |
| 32 | `CCc1cc(C(=O)N2CCCC(Cc3ccc(NC)nn3)C2)on1` (centres undefined) | - | -39.14% |
| 33 | `COC[C@@H]1CCCN1C(=O)c1cc(-c2cccc(OC)c2)n[nH]1` | 30.72% | 27.91% |
| 34 | `COCCO[C@H]1CCN(C(=O)c2ccsc2)[C@H]1Cc1ccncc1` | 23.12% | -5.62% |
| 35 | `c1cnn(CC2CN(c3ncnc4c3CCC4)CCO2)c1` (centres undefined) | 35.1% | -0.7801% |
| 36 | `Cc1nc[nH]c1-c1nccn1CCN1CCCC1=O` | -25.06% | 8.52% |
| 37 | `CC(C)c1cc(Br)ccc1NC(=O)NCC(O)CO` (centres undefined) | -52.68% | 6.553% |
| 38 | `Cc1ccc2[nH]c(CO[C@H]3CN(c4ccc(C#N)cn4)C[C@H]3F)nc2c1` | - | -19.73% |
| 39 | `O=C(O)C(F)(F)F.O=C(O)C(F)(F)F.[H][C@@]12C[C@H](C(=O)N3CCCCO3)CN(Cc3ccccc3F)[C@]1([H])CCO2` | -12.76% | -3.76% |
| 40 | `Cc1cc(NC(=O)CN2CCc3cncnc3C2)no1` | - | -27.59% |
| 41 | `CN1CCCC(N(C)C(=O)c2ccc(NC(=O)c3ccc[nH]3)cc2)C1` (centres undefined) | - | 7.46% |
| 42 | `CN(C)C(=O)CN1CCN(Cc2coc(-c3cccc(F)c3)n2)CC1` | 1.253% | -14.46% |
| 43 | `C[C@@H]1CN(Cc2cc(C3CCCCC3)no2)CC[C@@]1(O)C1CC1` | -29.9% | -30.44% |
| 44 | `CCCc1nc(CNc2cc(CS(C)(=O)=O)ccc2Cl)no1` | -15.91% | -13.06% |
| 45 | `CCn1cc(NC(=O)CN2CCC(Oc3ccccc3C)CC2)c(C)n1` | 45.29% | -10.66% |
| 46 | `Cc1c(NC(=O)NC2CN3CCC2CC3)cccc1C(=O)N1CCCC1` (centres undefined) | -34.1% | -24.69% |
| 47 | `Cc1ccc2c(n1)N(C)CCN(Cc1ccco1)C2.O=C(O)C(F)(F)F.O=C(O)C(F)(F)F` | 16.37% | -45.19% |
| 48 | `CCc1c(C)[nH]c(C(C)(C)N)nc1=O.Cl` | - | -28.7% |
| 49 | `CCc1cc(O)n2nc(C3CCN(C(=O)c4ccncc4)CC3)cc2n1` | -19.47% | -18.96% |
| 50 | `Cc1nnc(NC(=O)c2c3c(nn2C2CCS(=O)(=O)C2)CCC3)s1` (centres undefined) | -25.91% | 1.71% |
| 51 | `Cc1cc(CN2CCN(CC(O)c3cccc(F)c3)CC2)no1` (centres undefined) | - | -13.53% |
| 52 | `O=C(O)C(F)(F)F.[H][C@@]12CN(CC3CC3)C[C@@]1([H])N(Cc1cccc(F)c1)C(=O)CO2` | -15.09% | -17.88% |
| 53 | `Cc1cccnc1NCCNC(=O)c1cnc(-c2cccs2)nc1O` | 19.3% | 31.3% |
| 54 | `CCn1nnnc1-c1cccc(NC(=O)CCOC(C)C)c1` | - | 9.263% |
| 55 | `Cc1nccn1-c1ccc(CNC(=O)c2ccc([S+](C)[O-])cc2)cn1` (centres undefined) | - | 11.58% |
| 56 | `Cc1ccc(CN2CCc3onc(COc4cccnc4)c3C2)s1.O=C(O)C(F)(F)F.O=C(O)C(F)(F)F` | 21.86% | -17.93% |
| 57 | `Cc1ccc(S(=O)(=O)NCCNc2cc(-n3cccc3)ncn2)c(C)c1` | 53.05% | 18.86% |
| 58 | `CN(C)CCn1ccnc1C1CCN(c2cc(N)nc(N)n2)CC1` | 18.02% | -13.72% |
| 59 | `Cc1nc(C)c(S(=O)(=O)NC(=O)c2cccs2)s1` | 5.051% | 1.679% |
| 60 | `O=C(NCCC1=CCCCC1)c1n[nH]c2c1CCCC2` | - | -0.1697% |
| 61 | `Cc1cc2nc(SCC(=O)N3CCCC3)n(C)c(=O)c2[nH]1` | 9.217% | -3.457% |
| 62 | `Cc1oc(CN(C)C(=O)c2ccc(Br)cc2)cc1C(=O)O` | -29.9% | 10.39% |
| 63 | `CC(C(N)=O)N(C)Cc1ccccc1C(F)(F)F` (centres undefined) | -13.95% | -13.23% |
| 64 | `[H][C@]12CN(Cc3ccc(OC)cc3)C(=O)[C@@]1([H])CN(S(=O)(=O)CC)C2` | - | -19% |